The data set is described as follows: general procedure: solution-phase peptide synthesis; p-nitrophenyl active ester (DCC, HOBt). The conditions noted are these: coupling step, isolated yield after flash chromatography.

On to “BOC-L-Ser(CH2 T)-Gly-L-Ser(CH2 T)-Gly-OMe”, for which the step yield is 83% isolated yield.
